From paper PMC5847313
No constants are given. Whether binding was seen depends on the method and setting. For some of these results: In cells and extracts the contact can be indirect. Some results given as binding are weak or reduced against the parent protein; the word gives no strength.

Protein sequences, listed by entry. Tags and fused reporters are not part of them. Lines headed by an entry give the natural chain unless they say otherwise; changes in a name come on top. Residues count along the entry.
UniProt P12579: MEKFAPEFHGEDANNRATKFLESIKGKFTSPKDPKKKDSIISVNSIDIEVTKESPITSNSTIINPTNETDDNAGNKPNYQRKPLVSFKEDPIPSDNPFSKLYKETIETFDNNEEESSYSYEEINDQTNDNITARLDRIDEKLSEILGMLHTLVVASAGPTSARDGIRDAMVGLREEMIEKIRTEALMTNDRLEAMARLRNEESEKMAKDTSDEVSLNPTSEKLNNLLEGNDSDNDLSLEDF
RSV P fragment P[1–126], cleaved from GST: residues 1-126 of P12579
UniProt P62136, residues 7-300: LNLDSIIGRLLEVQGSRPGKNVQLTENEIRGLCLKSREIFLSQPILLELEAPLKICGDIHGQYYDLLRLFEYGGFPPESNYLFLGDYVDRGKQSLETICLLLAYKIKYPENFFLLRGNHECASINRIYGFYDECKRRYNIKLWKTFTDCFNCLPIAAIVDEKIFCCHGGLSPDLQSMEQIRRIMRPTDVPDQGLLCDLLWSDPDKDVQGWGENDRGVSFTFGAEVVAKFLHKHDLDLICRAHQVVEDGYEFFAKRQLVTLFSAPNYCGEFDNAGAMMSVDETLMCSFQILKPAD
UniProt A0A8C2LGY1: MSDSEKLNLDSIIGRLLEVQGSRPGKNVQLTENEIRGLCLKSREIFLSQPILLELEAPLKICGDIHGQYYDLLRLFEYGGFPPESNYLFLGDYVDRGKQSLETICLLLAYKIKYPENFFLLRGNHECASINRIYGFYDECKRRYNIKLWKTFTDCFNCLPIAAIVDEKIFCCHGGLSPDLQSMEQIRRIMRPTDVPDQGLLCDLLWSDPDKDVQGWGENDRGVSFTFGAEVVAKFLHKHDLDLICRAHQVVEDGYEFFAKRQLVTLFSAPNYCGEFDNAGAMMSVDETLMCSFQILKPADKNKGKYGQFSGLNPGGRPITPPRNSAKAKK

Columns and labels:
[1] = molecular target: RSV phosphoprotein P, full-length recombinant, cleaved from GST (human respiratory syncytial virus, strain Long) (UniProt P12579); assay: NMR titration; 1H-15N BEST-TROSY of 25 μM 15N-labeled P[1–126] or full-length P, alone and with 2 molar equivalents of unlabeled GST-PP1α; 288 K; 20 mM sodium phosphate pH 6.8, 100 mM NaCl; both purified
[2] = molecular target: RSV P fragment P[1–126], cleaved from GST (human respiratory syncytial virus, strain Long) (UniProt P12579); assay: as above
[3] = molecular target: GST-PP1α (PP1A residues 7–300 fused to GST) (UniProt P62136); assay: pull-down; GST-PP1 at 25 μM on glutathione-Sepharose beads, 3-fold molar excess of P WT or F87A, 3% BSA, 20 mM Tris/HCl pH 7.4, 150 mM NaCl, 1 h at 20°C; SDS-PAGE and Coomassie blue; both purified
[4] = molecular target: HA-P (RSV P with an N-terminal HA tag) (human respiratory syncytial virus, strain Long) (UniProt P12579); assay: co-IP; BSRT7/5 cells transfected with pN and pHA-P or pHA-P[F87A]; anti-HA immunoprecipitation; blot for endogenous PP1

Question: How did the binding [1] turn out when “GST-PP1α (PP1A residues 7–300 fused to GST) (from UniProt P62136 7-300) (enzyme)” was run?
Answer: The binding was “binds”.

Question: What about the binding [2] of the same substance?
Answer: The binding was “binds”.

Question: With “RSV phosphoprotein P, full-length recombinant, cleaved from GST (from UniProt P12579 1-241)” as the substance, how does the binding [3] read?
Answer: Its binding is “binds”.

Question: “cellular protein phosphatase 1 (PP1), endogenous (from UniProt A0A8C2LGY1 1-330) (enzyme)” was tested. Which binding [4] did it give?
Answer: The binding was “binds”.
